Publication PMC10709384
No constants are given. Whether binding was seen depends on the method and setting. Some entries that bind do so weakly or less than the wild type.

Chains of the proteins cited; added tags and fusions are not shown.
UniProt P22579: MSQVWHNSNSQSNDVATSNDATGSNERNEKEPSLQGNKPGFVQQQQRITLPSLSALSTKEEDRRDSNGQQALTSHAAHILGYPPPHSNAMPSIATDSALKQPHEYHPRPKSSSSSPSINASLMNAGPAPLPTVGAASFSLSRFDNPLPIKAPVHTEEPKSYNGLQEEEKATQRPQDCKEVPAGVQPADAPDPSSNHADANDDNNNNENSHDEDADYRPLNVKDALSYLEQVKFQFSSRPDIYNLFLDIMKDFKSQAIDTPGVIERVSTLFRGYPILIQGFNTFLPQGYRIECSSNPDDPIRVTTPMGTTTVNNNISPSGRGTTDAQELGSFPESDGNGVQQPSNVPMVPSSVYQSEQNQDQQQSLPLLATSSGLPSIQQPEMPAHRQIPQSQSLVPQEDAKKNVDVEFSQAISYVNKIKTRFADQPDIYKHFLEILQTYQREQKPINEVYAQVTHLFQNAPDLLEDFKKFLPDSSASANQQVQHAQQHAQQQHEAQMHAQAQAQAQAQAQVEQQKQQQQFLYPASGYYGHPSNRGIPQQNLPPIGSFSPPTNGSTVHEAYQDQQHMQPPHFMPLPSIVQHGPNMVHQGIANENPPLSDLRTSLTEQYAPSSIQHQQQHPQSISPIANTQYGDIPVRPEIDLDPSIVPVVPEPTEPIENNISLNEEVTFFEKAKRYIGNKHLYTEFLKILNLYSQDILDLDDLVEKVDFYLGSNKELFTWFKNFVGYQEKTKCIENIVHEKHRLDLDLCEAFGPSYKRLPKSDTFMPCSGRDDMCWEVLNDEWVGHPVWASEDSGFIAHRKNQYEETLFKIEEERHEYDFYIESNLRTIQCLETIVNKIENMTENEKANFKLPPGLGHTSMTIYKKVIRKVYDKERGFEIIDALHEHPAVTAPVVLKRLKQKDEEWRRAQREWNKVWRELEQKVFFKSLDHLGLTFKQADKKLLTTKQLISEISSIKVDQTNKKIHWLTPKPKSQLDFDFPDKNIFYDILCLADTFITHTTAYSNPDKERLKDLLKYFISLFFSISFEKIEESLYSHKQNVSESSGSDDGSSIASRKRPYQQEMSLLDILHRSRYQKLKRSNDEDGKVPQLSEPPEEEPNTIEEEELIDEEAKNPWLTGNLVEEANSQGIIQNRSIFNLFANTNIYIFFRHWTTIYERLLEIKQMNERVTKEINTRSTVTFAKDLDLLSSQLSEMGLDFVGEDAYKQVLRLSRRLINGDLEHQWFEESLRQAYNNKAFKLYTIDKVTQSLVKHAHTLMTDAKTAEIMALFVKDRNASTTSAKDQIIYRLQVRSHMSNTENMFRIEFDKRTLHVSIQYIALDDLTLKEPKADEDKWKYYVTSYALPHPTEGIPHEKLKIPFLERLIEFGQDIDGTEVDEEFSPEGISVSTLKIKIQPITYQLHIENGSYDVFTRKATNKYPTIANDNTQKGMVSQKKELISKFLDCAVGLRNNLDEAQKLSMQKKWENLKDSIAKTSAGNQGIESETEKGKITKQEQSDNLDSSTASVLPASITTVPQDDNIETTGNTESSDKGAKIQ
UniProt Q12432: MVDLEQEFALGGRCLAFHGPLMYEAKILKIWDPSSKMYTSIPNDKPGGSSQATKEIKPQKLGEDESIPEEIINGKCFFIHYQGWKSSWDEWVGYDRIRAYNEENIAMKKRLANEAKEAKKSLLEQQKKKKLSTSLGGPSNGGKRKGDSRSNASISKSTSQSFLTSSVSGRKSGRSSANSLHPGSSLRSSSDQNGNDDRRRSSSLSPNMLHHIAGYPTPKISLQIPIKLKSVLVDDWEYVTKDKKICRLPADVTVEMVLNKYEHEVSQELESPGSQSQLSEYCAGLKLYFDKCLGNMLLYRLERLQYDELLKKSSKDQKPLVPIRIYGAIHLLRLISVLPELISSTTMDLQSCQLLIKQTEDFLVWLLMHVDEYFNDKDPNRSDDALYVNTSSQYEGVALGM

Columns and labels:
Assay in all cases: cryo-EM structure; nucleosome (0.9 µM) and Rpd3S (1.8 µM) mixed on ice for 1 h in 50 mM NaCl, 20 mM Na-HEPES pH 7.4, 1 mM TCEP, 4% glycerol; Superose 6 Increase 3.2/300; mild glutaraldehyde cross-linking; single-particle cryo-EM, overall 2.8 Å (Ume1 only at more than 8 Å); both purified
Sin3 (S. cerevisiae) = Sin3 (S. cerevisiae) (UniProt P22579)
Rpd3 (S. cerevisiae) = target: T1, Rpd3 (S. cerevisiae) (UniProt P32561)
T1 sequence: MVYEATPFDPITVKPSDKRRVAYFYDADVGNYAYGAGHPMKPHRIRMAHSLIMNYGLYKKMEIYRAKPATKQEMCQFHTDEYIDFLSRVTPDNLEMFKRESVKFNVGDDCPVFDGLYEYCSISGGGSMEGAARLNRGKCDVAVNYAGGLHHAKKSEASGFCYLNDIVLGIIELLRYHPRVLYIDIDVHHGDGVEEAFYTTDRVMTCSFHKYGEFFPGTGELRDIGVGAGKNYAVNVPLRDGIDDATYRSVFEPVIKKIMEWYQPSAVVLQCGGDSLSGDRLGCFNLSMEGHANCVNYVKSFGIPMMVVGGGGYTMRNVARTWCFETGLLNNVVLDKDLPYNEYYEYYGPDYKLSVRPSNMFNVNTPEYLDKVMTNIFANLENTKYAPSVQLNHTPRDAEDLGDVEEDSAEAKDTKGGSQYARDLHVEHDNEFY

Eaf3 (S. cerevisiae) = Eaf3 (S. cerevisiae) (UniProt Q12432)

Measured: binding

B1: Rco1 (protein, UniProt Q04779 1-684)
chain: MDTSKKDTTRSPSHSNSSSPSSSSLSSSSSKEKKRPKRLSSQNVNYDLKRRKIITSEGIERSFKNEHSNLAVEDNIPEEEPKELLEKDSKGNIIKLNEPSTISEDSKVSVTGLPLNKGPSEKIKRESLWNYRKNLGGQSNNSEMTLVPSKRFTQVPKNFQDLNRNDLKTFLTENMTEESNIRSTIGWNGDIINRTRDREPESDRDNKKLSNIRTKIILSTNATYDSKSKLFGQNSIKSTSNASEKIFRDKNNSTIDFENEDFCSACNQSGSFLCCDTCPKSFHFLCLDPPIDPNNLPKGDWHCNECKFKIFINNSMATLKKIESNFIKQNNNVKIFAKLLFNIDSHNPKQFQLPNYIKETFPAVKTGSRGQYSDENDKIPLTDRQLFNTSYGQSITKLDSYNPDTHIDSNSGKFLICYKCNQTRLGSWSHPENSRLIMTCDYCQTPWHLDCVPRASFKNLGSKWKCPLHSPTKVYKKIHHCQEDNSVNYKVWKKQRLINKKNQLYYEPLQKIGYQNNGNIQIIPTTSHTDYDFNQDFKITQIDENSIKYDFFDKIYKSKMVQKRKLFQFQESLIDKLVSNGSQNGNSEDNMVKDIASLIYFQVSNNDKSSNNKSASKSNNLRKLWDLKELTNVVVPNELDSIQFNDFSSDEIKHLLYLKKIIESKPKEELLKFLNIENPENQSE
binds: all assays above
